According to patent US20120004199A1, “SCAFFOLDS” (priority 2009, published 2012):
Some results were stated once for a whole list of compounds, not compound by compound.

Test system: human fibroblast (HDF)
Experiment: MTT-ESTA assay of cell metabolic activity, 2D HDF cultures
Assay type: cell-based
Details: fibroblast viability
Method: Normal human fibroblasts were isolated and cultured as described previously (Ralston et al., 1997). […] Keratinocytes were cultured in Dulbecco's modified Eagle's medium (DMEM) supplemented with 10% (v/v) foetal calf serum (FCS), 2 mM glutamine, 0.625 μg/ml amphotericin B, 100 IU/ml penicillin and 100 μg/ml streptomycin.

Compound | concentrations tolerated by cells
CC(C)Cc1ccc(C(C)C(=O)O)cc1 (racemic) [Ibuprofen isomer mixture, 2-(4-isobutylphenyl)propionic acid] | up to 10^−3 M
CC(C)Cc1ccc(C(C)C(=O)[O-])cc1.[Na+] (centres unmarked) [Ibuprofen Sodium Salt] | up to 10^−3 M
